Test results reported in US12077555B2, “STAT degraders and uses thereof” (Kymera Therapeutics, Inc., priority 2019, dated 2024).
The structures given here were assigned with low confidence; some may be wrong.

By UniProt entry, the sequences of proteins in these tests, tags left out.
UniProt P40763, whole entry: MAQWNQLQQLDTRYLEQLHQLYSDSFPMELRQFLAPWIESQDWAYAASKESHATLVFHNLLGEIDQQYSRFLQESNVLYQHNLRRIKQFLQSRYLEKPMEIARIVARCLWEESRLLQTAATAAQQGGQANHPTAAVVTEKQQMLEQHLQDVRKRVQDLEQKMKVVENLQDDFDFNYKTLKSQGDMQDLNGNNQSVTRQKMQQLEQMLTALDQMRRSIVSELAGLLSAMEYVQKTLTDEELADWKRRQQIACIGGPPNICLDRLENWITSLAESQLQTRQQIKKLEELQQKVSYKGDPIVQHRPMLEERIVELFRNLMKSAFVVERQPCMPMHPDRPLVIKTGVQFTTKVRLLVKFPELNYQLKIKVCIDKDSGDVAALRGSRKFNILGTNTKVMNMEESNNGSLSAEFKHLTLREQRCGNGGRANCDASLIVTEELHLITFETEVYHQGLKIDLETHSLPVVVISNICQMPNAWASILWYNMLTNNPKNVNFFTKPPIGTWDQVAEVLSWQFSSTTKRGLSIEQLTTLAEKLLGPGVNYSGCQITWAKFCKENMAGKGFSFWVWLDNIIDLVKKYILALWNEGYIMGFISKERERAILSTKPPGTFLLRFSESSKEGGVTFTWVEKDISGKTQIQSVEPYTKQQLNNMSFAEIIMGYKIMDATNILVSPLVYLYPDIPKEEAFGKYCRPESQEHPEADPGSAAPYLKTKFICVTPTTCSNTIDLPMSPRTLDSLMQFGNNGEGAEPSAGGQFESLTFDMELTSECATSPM

What was measured:
STAT3 [1] = molecular target: T1, STAT3 (Homo sapiens, UniProt P40763); test: Deep tandem mass tag proteomics; conditions: Molm-16 and SU-DHL-1 cells, 8 hours, FIGS. 4 and 13
Experimental: Total protein was isolated from cells (e.g., Molm-16 and SU-DHL-1) and treated with degrader for 8 hours. Vehicle (DMSO)-treated cells were used as controls. Protein lysates, 2 biological replicates per condition, were prepared at 4 C in 8M urea, 75 mM NaCl, 1 mM EDTA in 50 mM Tris HCl (pH 8), 10 mM NaF, phosphatase inhibitor cocktail 2 (1:100; Sigma, P5726) and cocktail 3 (1:100; Sigma, P0044), 2 μg/mL aprotinin (Sigma, A6103), 10 μg/mL Leupeptin (Roche, 11017101001), and 1 mM PMSF (Sigma, 78830). Lysates were spun at 20,000 rcf for 10 min and supernatant (containing extracted proteins) was transferred to a clean microcentrifuge tube. Protein concentrations were determined using the Pierce BCA assay. Protein lysates were reduced with 5 mM dithiothreitol (Thermo Scientific, 20291) for 45 min at room temperature and alkylated with 10 mM iodoacetamide (Sigma, A3221) for an additional 45 min. […] Online fractionation was performed using a nanoflow Proxeon EASY-nLC 1200 UHPLC system (Thermo Fisher Scientific) and separated peptides were analyzed on a benchtop Orbitrap Q Exactive plus mass spectrometer (Thermo Fisher Scientific). All data were analyzed using Spectrum Mill software package (Agilent Technologies). […] In total, 10,992 proteins were quantified. […]

STAT3 [2] = molecular target: T1, STAT3; test: Live cell degradation kinetics in A549 HiBiT cells; conditions: FIG. 3A, FIG. 21, tested form: diammonium
Experimental: 700,000 A549 HiBiT cells were seeded in 60 mm dish and rested overnight at 37° C. Cells were transfected with LgBiT vector comprising 6.5 μg plasmid DNA+19.5 μL FuGENE HD transfection reagent per 60 mm dish (scale up/down as necessary). Following 24 h post transfection, cells were trypsinized and seeded at 2,000 cells/well in 40 μL in a 384-well plate. Cells were not seeded in the 2 outermost columns/rows to avoid evaporation. Outer wells were filled with PBS. After allowing the cells to settle overnight, Endurazine 1:100 was added to the cells by first diluting 1:10 in media and further diluting 1:10 in 40 μL of cells by adding ˜4.4 μL of diluted Endurazine in plate #1. Cells were incubated at 37° C. for 2.5 h. Compound was added with Tecan HPd300 dispenser (final DMSO=0.1%) to both plates (10 point, 1:3 dilution; 30 μM top dose). Plate #1 luminescence was read at t=0, 30 min, 1h, 2h, 4h, 6h, 8h, 16h, 24 h, 48h. Plate was returned to incubator between reads.

SMILES	selectivity of degradation for STAT3 vs >10,000 other detected proteins (STAT3 [1])	degradation of STAT3, live cell kinetics (STAT3 [2])
Cn1c(=O)n(C2CCC(=O)NC2=O)c2ccc(CCCCCCC(=O)N3CC[C@H]4CC[C@@H](C(=O)N[C@@H](CCC(N)=O)C(=O)NC(c5ccccc5)c5ccccc5)N4C(=O)[C@@H](NC(=O)c4cc5cc(C(=O)P(=O)(O)O)ccc5[nH]4)C3)cc21 (some centres unmarked)	highly selective for STAT3	
Cc1ncsc1-c1ccc([C@H](C)NC(=O)[C@@H]2C[C@@H](O)CN2C(=O)[C@@H](NC(=O)CCCCc2ccc(CO[C@H](C)[C@H](CCC(N)=O)NC(=O)[C@@H]3Cc4cccc5c4N3C(=O)[C@@H](NC(=O)c3cc4cc(C(=O)P(=O)(O)O)ccc4[nH]3)CC5)cc2)C(C)(C)C)cc1 [Compound I-227]		rapid and potent degradation of STAT3
